Our source for the binding values is publication PMC10018365, “Cryo-EM structure of the fully assembled Elongator complex” (Nucleic Acids Research, 2023).

Chains of the proteins cited; added tags and fusions are not shown. Lines headed by an entry give the natural chain unless they say otherwise; changes in a name come on top.
UniProt O95163: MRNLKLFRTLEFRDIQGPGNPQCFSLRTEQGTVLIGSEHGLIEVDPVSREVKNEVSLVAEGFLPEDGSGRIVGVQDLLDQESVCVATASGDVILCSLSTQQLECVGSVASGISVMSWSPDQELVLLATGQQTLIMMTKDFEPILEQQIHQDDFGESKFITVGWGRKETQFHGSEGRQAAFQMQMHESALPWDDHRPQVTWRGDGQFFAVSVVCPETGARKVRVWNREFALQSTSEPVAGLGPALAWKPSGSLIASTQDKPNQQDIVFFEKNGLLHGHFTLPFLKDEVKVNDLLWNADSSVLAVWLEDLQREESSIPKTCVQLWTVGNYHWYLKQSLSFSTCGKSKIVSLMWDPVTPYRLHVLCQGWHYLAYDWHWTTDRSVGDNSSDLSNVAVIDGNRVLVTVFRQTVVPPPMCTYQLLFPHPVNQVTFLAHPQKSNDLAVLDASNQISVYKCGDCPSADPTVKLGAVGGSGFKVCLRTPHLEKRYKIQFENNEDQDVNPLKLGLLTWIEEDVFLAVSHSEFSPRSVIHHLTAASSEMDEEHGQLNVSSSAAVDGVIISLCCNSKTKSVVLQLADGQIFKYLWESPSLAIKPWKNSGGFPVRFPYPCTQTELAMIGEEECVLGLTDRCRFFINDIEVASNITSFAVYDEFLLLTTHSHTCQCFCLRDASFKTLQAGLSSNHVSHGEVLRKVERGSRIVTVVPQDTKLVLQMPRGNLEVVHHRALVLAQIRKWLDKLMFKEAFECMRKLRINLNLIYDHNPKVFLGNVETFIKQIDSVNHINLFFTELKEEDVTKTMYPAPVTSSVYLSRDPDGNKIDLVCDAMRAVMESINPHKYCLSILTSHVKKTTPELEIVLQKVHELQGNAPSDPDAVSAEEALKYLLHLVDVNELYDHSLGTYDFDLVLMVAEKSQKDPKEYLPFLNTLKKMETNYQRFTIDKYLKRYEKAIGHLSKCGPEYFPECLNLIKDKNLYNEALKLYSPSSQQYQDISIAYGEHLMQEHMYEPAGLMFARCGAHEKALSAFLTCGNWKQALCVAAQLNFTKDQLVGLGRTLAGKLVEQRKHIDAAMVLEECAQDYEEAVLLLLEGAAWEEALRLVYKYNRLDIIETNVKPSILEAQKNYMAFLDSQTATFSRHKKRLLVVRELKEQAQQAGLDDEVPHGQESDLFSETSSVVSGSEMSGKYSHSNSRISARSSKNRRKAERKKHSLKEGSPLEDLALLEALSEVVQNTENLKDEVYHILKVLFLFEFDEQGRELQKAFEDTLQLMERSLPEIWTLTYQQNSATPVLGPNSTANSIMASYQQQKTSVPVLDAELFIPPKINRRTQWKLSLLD
UniProt Q6IA86: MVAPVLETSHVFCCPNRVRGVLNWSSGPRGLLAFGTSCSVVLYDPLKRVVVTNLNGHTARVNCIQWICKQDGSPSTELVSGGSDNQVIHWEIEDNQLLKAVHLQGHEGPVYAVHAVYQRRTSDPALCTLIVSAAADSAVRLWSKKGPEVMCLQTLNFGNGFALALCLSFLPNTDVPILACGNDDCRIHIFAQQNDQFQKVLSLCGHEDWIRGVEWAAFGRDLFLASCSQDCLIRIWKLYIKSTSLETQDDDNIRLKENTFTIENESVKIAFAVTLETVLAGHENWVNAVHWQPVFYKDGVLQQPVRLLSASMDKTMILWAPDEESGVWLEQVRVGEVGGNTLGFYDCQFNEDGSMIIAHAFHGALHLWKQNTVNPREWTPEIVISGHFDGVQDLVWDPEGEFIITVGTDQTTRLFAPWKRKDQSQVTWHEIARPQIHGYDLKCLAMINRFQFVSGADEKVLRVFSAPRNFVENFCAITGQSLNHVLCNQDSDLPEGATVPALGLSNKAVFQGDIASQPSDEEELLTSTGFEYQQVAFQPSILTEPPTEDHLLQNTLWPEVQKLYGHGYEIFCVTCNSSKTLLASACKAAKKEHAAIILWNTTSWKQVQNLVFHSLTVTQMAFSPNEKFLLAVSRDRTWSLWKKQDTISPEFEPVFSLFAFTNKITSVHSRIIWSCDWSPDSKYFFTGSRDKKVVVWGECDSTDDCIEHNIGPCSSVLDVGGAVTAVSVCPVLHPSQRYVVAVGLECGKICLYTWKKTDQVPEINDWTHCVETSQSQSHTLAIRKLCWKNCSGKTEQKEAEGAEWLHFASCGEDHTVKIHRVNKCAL

Assay [1] addresses Homo sapiens Elp123 subcomplex, wild type (Homo sapiens) (UniProt O95163+Q6IA86+Q9H9T3). Kind of assay: pull-down; 10 μg bait, 20 μg prey; Elp123 on StrepTactin Sepharose by Twin-Strep-tagged Elp3, or Elp456 on anti-DYKDDDDK resin by FLAG-tagged Elp6; 30-60 min at 4°C; washes in 20 mM HEPES pH 7.5, 100 mM NaCl, 1 mM DTT, 0.05% Tween 20; SDS-PAGE with Coomassie or silver stain; also with ATP and bulk tRNA; both purified.

Assay [2] has as its target T1, Mus musculus Elp3 (Mus musculus) (UniProt Q9CZX0).
T1 sequence: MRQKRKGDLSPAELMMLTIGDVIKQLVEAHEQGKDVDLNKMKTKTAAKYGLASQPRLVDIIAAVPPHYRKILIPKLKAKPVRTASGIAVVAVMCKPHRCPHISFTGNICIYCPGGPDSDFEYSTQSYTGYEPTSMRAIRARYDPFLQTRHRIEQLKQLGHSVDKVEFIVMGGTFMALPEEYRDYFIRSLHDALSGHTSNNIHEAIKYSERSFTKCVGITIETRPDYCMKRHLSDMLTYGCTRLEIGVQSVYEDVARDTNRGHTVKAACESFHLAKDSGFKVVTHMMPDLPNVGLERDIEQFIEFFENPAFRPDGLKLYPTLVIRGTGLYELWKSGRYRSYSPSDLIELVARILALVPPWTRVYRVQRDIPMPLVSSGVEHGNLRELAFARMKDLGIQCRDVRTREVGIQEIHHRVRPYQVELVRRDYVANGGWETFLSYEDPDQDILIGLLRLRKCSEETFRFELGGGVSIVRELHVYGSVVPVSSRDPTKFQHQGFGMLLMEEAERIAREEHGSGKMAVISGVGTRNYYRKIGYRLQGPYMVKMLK
Kind of assay: co-purification (affinity chromatography and SEC); mouse and human subcomplexes co-expressed in insect cells; Elp123 by Twin-Strep-tag on Elp3 (StrepTrap), heparin, Superose 6; Elp456 by protein A on Elp6 (IgG Sepharose, TEV elution), Superose 6.

Assay [3] addresses T1, Mus musculus Elp3 (Mus musculus). Kind of assay: cryo-EM structure; MmElp123 without tRNA (4.0 Å) and with in vitro transcribed mouse tRNA Arg UCU (4.35 Å); both purified.
For assay [4], the target named is T2, Mus musculus Elp1 (Mus musculus) (UniProt Q7TT37).
T2 sequence: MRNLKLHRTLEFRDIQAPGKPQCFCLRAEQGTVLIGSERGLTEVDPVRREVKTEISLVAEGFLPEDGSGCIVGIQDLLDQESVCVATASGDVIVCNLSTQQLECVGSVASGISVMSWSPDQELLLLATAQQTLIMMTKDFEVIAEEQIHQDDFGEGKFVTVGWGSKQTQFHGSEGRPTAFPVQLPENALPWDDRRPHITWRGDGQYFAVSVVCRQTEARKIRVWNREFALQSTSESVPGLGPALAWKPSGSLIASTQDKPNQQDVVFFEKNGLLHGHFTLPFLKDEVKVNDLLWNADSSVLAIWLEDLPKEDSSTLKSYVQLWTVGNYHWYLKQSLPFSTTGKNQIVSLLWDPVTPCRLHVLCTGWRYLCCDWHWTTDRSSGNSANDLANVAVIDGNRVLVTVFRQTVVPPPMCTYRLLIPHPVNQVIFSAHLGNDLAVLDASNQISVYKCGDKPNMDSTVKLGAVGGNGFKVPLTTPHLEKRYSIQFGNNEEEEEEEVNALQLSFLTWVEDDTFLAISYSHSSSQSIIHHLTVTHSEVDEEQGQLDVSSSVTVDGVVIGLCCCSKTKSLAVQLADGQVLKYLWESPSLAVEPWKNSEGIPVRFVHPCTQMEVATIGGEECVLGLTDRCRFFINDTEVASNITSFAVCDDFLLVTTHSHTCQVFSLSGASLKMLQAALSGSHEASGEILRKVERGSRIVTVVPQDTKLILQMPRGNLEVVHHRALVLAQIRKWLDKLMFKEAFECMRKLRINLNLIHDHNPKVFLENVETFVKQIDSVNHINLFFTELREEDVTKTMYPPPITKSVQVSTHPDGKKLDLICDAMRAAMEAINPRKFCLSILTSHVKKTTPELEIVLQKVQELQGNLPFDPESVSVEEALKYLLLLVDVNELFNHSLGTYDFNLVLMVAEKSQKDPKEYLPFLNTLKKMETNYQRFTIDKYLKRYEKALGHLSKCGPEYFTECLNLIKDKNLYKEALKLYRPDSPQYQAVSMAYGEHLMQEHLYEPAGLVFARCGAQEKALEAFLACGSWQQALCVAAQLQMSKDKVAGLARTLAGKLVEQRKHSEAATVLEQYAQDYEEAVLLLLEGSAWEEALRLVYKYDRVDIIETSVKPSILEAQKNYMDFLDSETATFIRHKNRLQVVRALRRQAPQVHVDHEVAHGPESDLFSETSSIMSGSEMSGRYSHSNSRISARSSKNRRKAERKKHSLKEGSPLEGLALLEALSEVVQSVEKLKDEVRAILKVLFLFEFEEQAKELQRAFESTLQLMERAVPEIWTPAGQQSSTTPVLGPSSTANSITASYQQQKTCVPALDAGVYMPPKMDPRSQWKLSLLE
Described as above.

Results are given in words; binding and its absence hold for the method and conditions named. Some entries that bind do so weakly or less than the wild type.

B1: Homo sapiens Elp456 subcomplex with Elp5 Δ1–9 (complex, UniProt Q96EB1 1-424; Q8TE02 10-300; Q0PNE2 1-266)
chain 1: MAAVATCGSVAASTGSAVATASKSNVTSFQRRGPRASVTNDSGPRLVSIAGTRPSVRNGQLLVSTGLPALDQLLGGGLAVGTVLLIEEDKYNIYSPLLFKYFLAEGIVNGHTLLVASAKEDPANILQELPAPLLDDKCKKEFDEDVYNHKTPESNIKMKIAWRYQLLPKMEIGPVSSSRFGHYYDASKRMPQELIEASNWHGFFLPEKISSTLKVEPCSLTPGYTKLLQFIQNIIYEEGFDGSNPQKKQRNILRIGIQNLGSPLWGDDICCAENGGNSHSLTKFLYVLRGLLRTSLSACIITMPTHLIQNKAIIARVTTLSDVVVGLESFIGSERETNPLYKDYHGLIHIRQIPRLNNLICDESDVKDLAFKLKRKLFTIERLHLPPDLSDTVSRSSKMDLAESAKRLGPGCGMMAGGKKHLDF
chain 2: GLVLLRDSVEWEGRSLLKALVKKSALCGEQVHILGCEVSEEEFREGFDSDINNRLVYHDFFRDPLNWSKTEEAFPGGPLGALRAMCKRTDPVPVTIALDSLSWLLLRLPCTTLCQVLHAVSHQDSCPGDSSSVGKVSVLGLLHEELHGPGPVGALSSLAQTEVTLGGTMGQASAHILCRRPRQRPTDQTQWFSILPDFSLDLQEGPSVESQPYSDPHIPPVDPTTHLTFNLHLSKKEREARDSLILPFQFSSEKQQALLRPRPGQATSHIFYEPDAYDDLDQEDPDDDLDI
chain 3: MFVELNNLLNTTPDRAEQGKLTLLCDAKTDGSFLVHHFLSFYLKANCKVCFVALIQSFSHYSIVGQKLGVSLTMARERGQLVFLEGLKSAVDVVFQAQKEPHPLQFLREANAGNLKPLFEFVREALKPVDSGEARWTYPVLLVDDLSVLLSLGMGAVAVLDFIHYCRATVCWELKGNMVVLVHDSGDAEDEENDILLNGLSHQSHLILRAEGLATGFCRDVHGQLRILWRRPSQPAVHRDQSFTYQYKIQDKSVSFFAKGMSPAVL
Consider B1, for which, in assay [1], the binding entry is “binds”.

B2: Mus musculus Elp2 (protein, UniProt Q91WG4 1-831)
chain: MVSSVLEVSHVFCCPNRVRGALSWNTGPGGLLAFGTSCSVVLYDPQKKVVITNLNGHTARVNCLQWIRTEDGSPSNELVSGGSDNRVIHWELENNQVLKSVRLQGHEGPVCAVHAIYQSGPSEGEQHALIASAASDSTVRIWSKKGSEVKYLQTLSFRDGFVLSVCLAILPGTNVPVLACGDDDCRIHLYIQQDDQFQKALSLCGHEDWIRGVEWATFGRDLFLASCSQDCLIRIWRLYMKPASFETKDGSLRLKENTFTIKDGGVRTTVAVTLETVLAGHENWVNAVHWQPSFYKDGVLQQPVRLLSASMDKTMILWAPDEESGVWLEQVRVGEVGGNTLGFYDCQFGENGTMIIAHAFHGALHLWKQSTVNPRQWAPEIVISGHFDGVQDLMWDPEGEFIITTSTDQTTRLFAPWKKKDQKDRSQVTWHEIARPQIHGYNIKCLAMIDRFQFVSGADEKVLRVFSAPRNFVENFSVISRQSLSHMLCDDQDLPEGATVPALGLSNKALFQGDIASQPFEEDELISPAFGSPQVTFQPAVLNEPPTEDHLLQNTLWPEIQKLYGHGYEIVCVACNNSKTLLASACKASQKEHAAIILWSTASWKQVQSLAFHTLTVTQMTFSPDDKFLLAVSRDRTWSLWKRQDATSSEFDPFFSLFAFTNKITSVHSRIIWSCDWSPDNKYFFTGSRDKKVVVWGECKSSHNPMEHPIRPCSSILDVGSSVTAVSVCPVLNPAQRYIVAIGLESGKICIYSWNKTNQEINDWTSCVETNPSQSHSLGIRRLCWKSCSDDDDDDDDDDTEQSEEGPEWLHFASCGEDHTVKIYRVNRRAL
For the molecule B2, the binding result in assay [2] and in assay [3] was “binds” each time.

B3: Mus musculus Elp3 (enzyme, UniProt Q9CZX0 1-547)
chain: MRQKRKGDLSPAELMMLTIGDVIKQLVEAHEQGKDVDLNKMKTKTAAKYGLASQPRLVDIIAAVPPHYRKILIPKLKAKPVRTASGIAVVAVMCKPHRCPHISFTGNICIYCPGGPDSDFEYSTQSYTGYEPTSMRAIRARYDPFLQTRHRIEQLKQLGHSVDKVEFIVMGGTFMALPEEYRDYFIRSLHDALSGHTSNNIHEAIKYSERSFTKCVGITIETRPDYCMKRHLSDMLTYGCTRLEIGVQSVYEDVARDTNRGHTVKAACESFHLAKDSGFKVVTHMMPDLPNVGLERDIEQFIEFFENPAFRPDGLKLYPTLVIRGTGLYELWKSGRYRSYSPSDLIELVARILALVPPWTRVYRVQRDIPMPLVSSGVEHGNLRELAFARMKDLGIQCRDVRTREVGIQEIHHRVRPYQVELVRRDYVANGGWETFLSYEDPDQDILIGLLRLRKCSEETFRFELGGGVSIVRELHVYGSVVPVSSRDPTKFQHQGFGMLLMEEAERIAREEHGSGKMAVISGVGTRNYYRKIGYRLQGPYMVKMLK
Take B3: in assay [4], the binding result was “binds”.
